Values quoted from earlier work, collected in patent US12653892B2, “Composition and method for new therapeutic agents including guanidinium-presenting dendrimers and branched structures” (priority 2020, dated 2026).
At least one compound was matched to its structure with a doubt left.

Tested on: S. aureus ATCC 29213
Details: cited from earlier work

Row | SMILES | Literature MIC
1 | CO[C@H]1/C=C/O[C@@]2(C)Oc3c(C)c(O)c4c(O)c(c(/C=N/N5CCN(C)CC5)c(O)c4c3C2=O)NC(=O)/C(C)=C\C=C\[C@H](C)[C@H](O)[C@@H](C)[C@@H](O)[C@@H](C)[C@H](OC(C)=O)[C@@H]1C [Rifampicin] | 0.005 to 0.019 µM
2 | CN(C)[C@@H]1C(O)=C(C(N)=O)C(=O)[C@@]2(O)C(O)=C3C(=O)c4c(O)cccc4[C@@](C)(O)[C@H]3C[C@@H]12 [Tetracycline] | 0.28 to 2.25 µM
